Laboratory results as given in EP4420677A1, “VACCINES AGAINST TERT-POSITIVE TUMORS” (Altevax, priority 2023, dated 2024).
Part of at least one peptide drawing is inferred or uncertain, most often the ends. Peptide text beside a SMILES is read from it.

What was measured:
[1] = test system: HLA-A2/DR1 mice; assay: Immunogenicity: subcutaneous immunization with peptide-melanin + CpG-28, IFNg-SFC count in re-stimulated splenocytes; type: in vivo; conditions: for T-cell Immune response: mean +/-SEM (number of mice): numbers of IFNg-SFCs, subcutaneous immunization, peptide 10 µg/mouse with melanin + CpG-28 10 µg/mouse, sacrifice day 8, splenocytes re-stimulated with the corresponding peptide
[2] = Peptide stability in solution at pH 7.4 (HPLC peak area vs reference); type: physicochemical; conditions: after 7 days at -20°C
Experimental: To develop a relevant vaccine, it is necessary to have a proper drug substance stability. To assess stability, the peptides were diluted at à 0,5 mg/mL in water, adjusted at pH 7.4, frozen at -20° C, and analyzed by HPLC (Hypersil GOLD C8 15cm x 4.6mm x 5µm (ThermoFisher) on the indicated day, using an elution buffer CH3CN 15%, TFA 0,1%. The pic area was compared to a reference standard.
Indeed, after 7 days at -20°C, the pic of SEQ ID NO: 4 was reduced by 53%, while SEQ ID NO: 7 was stable (> 95%) for at least 3 months at pH7.4 at -20°C, and at least 7 days at room temperature. Table 4: Stability of peptides after a 7-day incubation period in solution at pH7.4 at different temperature (ratio of the pick area on the indicated day/ pic area of a fresh solution of the same peptide)

[3] = Filterability and precipitation of the mixture peptide + melanin; type: physicochemical; conditions: for precipitation of the mixture peptide + melanine: mixture as described in example 2, isotonic saline
Excerpt: Filterability of a medical formulation on a 0.2µ filter is important to achieve a sterile solution.

[4] = test system: transgenic SURE mice; assay: Cross-reactivity of T-cell response with the native epitope after immunization (IFNγ-SFCs); type: in vivo; conditions: mice immunized with SEQ ID NO: 7; splenocytes re-stimulated 18 hours with SEQ ID NO: 7 or native epitope SEQ ID NO: 1, 5 µg/ml to 5 ng/ml

| SMILES | T-cell Immune response: mean +/-SEM (number of mice) [1] | precipitation of the mixture peptide + melanine [3] | other results |
| --- | --- | --- | --- |
| CC[C@H](C)[C@H](NC(=O)CNC(=O)[C@@H](NC(=O)[C@H](CO)NC(=O)[C@H](CCC(N)=O)NC(=O)[C@H](CC(C)C)NC(=O)[C@H](CCCCN)NC(=O)[C@H](CO)NC(=O)[C@H](Cc1c[nH]c2ccccc12)NC(=O)[C@@H](NC(=O)[C@H](CO)NC(=O)[C@@H](N)CCCCN)C(C)C)[C@@H](C)CC)C(=O)N[C@@H](CCCNC(=N)N)C(=O)N[C@@H](CCC(N)=O)C(=O)N[C@@H](Cc1c[nH]cn1)C(=O)O [SEQ ID NO: 1, KSVWSKLQSIGIRQH, reference compound] | 51 +/-28 (n=7) | – | – |
| CC[C@H](C)[C@H](NC(=O)CNC(=O)[C@@H](NC(=O)[C@H](CO)NC(=O)[C@H](CCC(N)=O)NC(=O)[C@H](CC(C)C)NC(=O)[C@H](CCCCN)NC(=O)[C@H](CO)NC(=O)[C@H](Cc1c[nH]c2ccccc12)NC(=O)[C@@H](NC(=O)[C@H](CO)NC(=O)[C@H](CCCCN)NC(=O)[C@@H](N)CS)C(C)C)[C@@H](C)CC)C(=O)N[C@@H](CCCNC(=N)N)C(=O)N[C@@H](CCC(N)=O)C(=O)N[C@@H](Cc1c[nH]cn1)C(=O)O [SEQ ID NO: 4, CKSVWSKLQSIGIRQH] (H-CKSVWSKLQSIGIRQH-OH) | 124 +/-31 (n=8) | – | reduction of the pic [2]: 53% |
| CC[C@H](C)[C@H](NC(=O)CNC(=O)[C@@H](NC(=O)[C@H](CO)NC(=O)[C@H](CCC(N)=O)NC(=O)[C@H](CC(C)C)NC(=O)[C@H](CCCCN)NC(=O)[C@H](CO)NC(=O)[C@H](Cc1c[nH]c2ccccc12)NC(=O)[C@@H](NC(=O)[C@H](CO)NC(=O)[C@H](CCCCN)NC(=O)[C@@H](N)CCSC)C(C)C)[C@@H](C)CC)C(=O)N[C@@H](CCCNC(=N)N)C(=O)N[C@@H](CCC(N)=O)C(=O)N[C@@H](Cc1c[nH]cn1)C(=O)O [SEQ ID NO: 5, MKSVWSKLQSIGIRQH] (H-MKSVWSKLQSIGIRQH-OH) | 43 +/-14 (n=4) | – | – |
| CC[C@H](C)[C@H](NC(=O)CNC(=O)[C@@H](NC(=O)[C@H](CO)NC(=O)[C@H](CCC(N)=O)NC(=O)[C@H](CC(C)C)NC(=O)[C@H](CCCCN)NC(=O)[C@H](CO)NC(=O)[C@H](Cc1c[nH]c2ccccc12)NC(=O)[C@@H](NC(=O)[C@H](CO)NC(=O)[C@H](CCCCN)NC(=O)[C@@H](N)CCCCN)C(C)C)[C@@H](C)CC)C(=O)N[C@@H](CCCNC(=N)N)C(=O)N[C@@H](CCC(N)=O)C(=O)N[C@@H](Cc1c[nH]cn1)C(=O)O [SEQ ID NO: 6, KKSVWSKLQSIGIRQH] (H-KKSVWSKLQSIGIRQH-OH) | 43 +/-29 (n=11) | precipitates | – |
| CC[C@H](C)[C@H](NC(=O)CNC(=O)[C@@H](NC(=O)[C@H](CO)NC(=O)[C@H](CCC(N)=O)NC(=O)[C@H](CC(C)C)NC(=O)[C@H](CCCCN)NC(=O)[C@H](CO)NC(=O)[C@H](Cc1c[nH]c2ccccc12)NC(=O)[C@@H](NC(=O)[C@H](CO)NC(=O)[C@H](CCCCN)NC(=O)[C@@H](N)CO)C(C)C)[C@@H](C)CC)C(=O)N[C@@H](CCCNC(=N)N)C(=O)N[C@@H](CCC(N)=O)C(=O)N[C@@H](Cc1c[nH]cn1)C(=O)O [SEQ ID NO: 7, SKSVWSKLQSIGIRQH] (H-SKSVWSKLQSIGIRQH-OH) | – | does not precipitate | efficiency to trigger an immune response (in words) ([1]; after immunization in mice): very efficient; filterability on a 0.2µ filter ([3]; mixture peptide + melanine as described in example 2): can be filtered on a 0.2µ filter; cross reactivity of T-cell responses [4]: cross reactivity of the immune response on both epitopes |
